Amino acid sequences for entries named in this document (tags omitted).
UniProt Q03431, whole entry, looked up: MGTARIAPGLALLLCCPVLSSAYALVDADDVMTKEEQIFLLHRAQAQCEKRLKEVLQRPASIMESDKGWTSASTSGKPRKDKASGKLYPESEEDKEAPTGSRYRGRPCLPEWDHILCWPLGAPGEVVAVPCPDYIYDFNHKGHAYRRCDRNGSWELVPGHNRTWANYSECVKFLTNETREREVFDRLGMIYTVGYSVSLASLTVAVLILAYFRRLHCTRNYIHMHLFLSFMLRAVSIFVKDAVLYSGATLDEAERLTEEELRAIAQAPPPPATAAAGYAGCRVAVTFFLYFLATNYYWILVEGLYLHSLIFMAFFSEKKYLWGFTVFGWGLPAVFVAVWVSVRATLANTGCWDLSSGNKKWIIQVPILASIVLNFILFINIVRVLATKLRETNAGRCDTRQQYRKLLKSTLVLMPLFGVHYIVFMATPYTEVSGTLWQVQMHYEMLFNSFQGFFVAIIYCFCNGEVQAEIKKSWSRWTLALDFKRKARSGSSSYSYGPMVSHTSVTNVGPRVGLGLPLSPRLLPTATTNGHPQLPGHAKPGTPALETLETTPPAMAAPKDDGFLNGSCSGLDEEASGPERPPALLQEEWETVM

The whole screen tested about 410,000 compounds, of which about 310 (0.076%) were called active. The shares of active, inactive and inconclusive entries below differ from those in the screen. Calls come from the whole dose curve; as a rule, active = well fitted activation curve with a large enough effect; inconclusive = small, poorly fitted or top-dose-only effect, or another doubt; inactive = no such curve, though single readings can be large or run the other way. Potencies beside an inconclusive call are fits to weak or partial responses and may not hold up.
These compounds were tested against Parathyroid hormone/parathyroid hormone-related peptide receptor (Homo sapiens) (UniProt Q03431) (assay: qHTS for PTHR1 Agonists: Primary Screen). Details: HEK293 GP2 PTHR1 cells, GloSensor cAMP luminescence, 1 h; activation: at 115 µM (top of the series) unless noted; series mostly up to 115 µM.
Summary of the method: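 HEK-293-derived GP2 cells expressing PTHR1 and a GloSensor cAMP reporter, 3,000/well, plated overnight, given luciferin plus IBMX (each 0.5 mM as added) for 1 h at 37 °C, then compound for 1 h at 37 °C. Luminescence was read after 15 min at room temperature.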
`CCC(C)C(=O)Nn1c(C2CC2)nc2cc(OC)c(OC)cc2c1=O` (configuration not stated) was tested, and the Potency was inconclusive: 44.7 µM [activator, partial curve, poor fit]. In the case of `Brc1ccc(-c2csc(N/N=C/c3ccco3)n2)cc1`, the Potency was “inactive”. `CCOCC(=O)Nc1ccc([N+](=O)[O-])cc1OC` was tested, and the activation was inconclusive: -34.5% [activator]. With `Cc1ccc(NC(=O)CSc2nnc(NC(=O)CN3CCOCC3)s2)cc1` the activation was inconclusive: -49.3% [activator] [at 57.5 µM]. For `O=c1[nH]c(N2CCN(Cc3ccccc3)CC2)nc2c1CCC2`, the activation was inconclusive: 37.3% [activator]. `Cc1cc2nc(-c3ccc(SCc4ccc(C(=O)O)cc4)nc3)[nH]c2cc1C` was tested, and the Potency was “inactive”. With `O=C(O)c1cccc(CN2C(=O)c3ccccc3C2=O)c1` the activation was inconclusive: 33.6% [activator]. With `COc1ccc(Cn2c(CO)cnc2SCc2cccc(C)c2)cc1` the Potency was “inactive”. `CCN(Cc1ccccc1)C(c1cc2ccc(C)cc2[nH]c1=O)c1nnnn1CCOC` (configuration not stated) was tested, and the Potency was inconclusive: 2.82 µM [activator, single point]. For `Cc1ccc2[nH]cc(C(=O)CN3CCOCC3)c2c1`, the activation was inconclusive: 56.4% [activator] [at 57.5 µM]. In the case of `C=CCn1c(SC(C)CC)nc(O)cc1=O` (configuration not stated), the Potency was inconclusive: 35.5 µM [activator, single point]. `O=C(COC(=O)Cc1ccsc1)Nc1cccc(F)c1` was tested, and the activation was inconclusive: -38.4% [activator]. In the case of `Cn1nc2c(c1C(=O)N1CCCC(C(=O)c3cc(F)ccc3F)C1)CCCC2` (configuration not stated), the activation was inconclusive: -44.7% [activator]. With `CCOC(=O)CN=C1CC(C)(C)CC2=C1Sc1ncnc(N(C)C)c1N2` the Potency was inconclusive: 5.01 µM [activator, single point]. For `CN(CC(=O)Nc1ccccc1Cl)C(=O)c1ccc(-c2cccc(C(F)(F)F)c2)o1`, the Potency was “inactive”. For `Cc1cccn2c(=O)c3cc(C(=O)NC4CCCCC4)sc3nc12`, the activation was inconclusive: -37.4% [activator]. With `CCCCOc1ccc(S(=O)(=O)NCc2csc(-c3ccc(OC)cc3)n2)cc1` the Potency was “inactive”. `COC(=O)c1ccc(Cn2c(O)c(N=NC(N)=S)c3ccccc32)o1` was tested, and the Potency was inconclusive: 112 µM [activator, partial curve, poor fit]. With `COc1ccc(C(=O)Nc2ccncc2)cc1[N+](=O)[O-]` the activation was inconclusive: 39.3% [activator]. For `N#CCC(CNc1ncc(C(F)(F)F)cc1Cl)OC(=O)c1cccc([N+](=O)[O-])c1` (configuration not stated), the activation was inconclusive: 122% [activator] [at 57.5 µM]. With `CC(C)c1ccc(NC(=O)CC2Oc3ccccc3NC2=O)cc1` (configuration not stated) the Potency was inconclusive: 79.4 µM [activator, partial curve, poor fit]. `CN1CCC(N(C)C(=O)c2cc(-c3ccccc3Cl)nc3ccccc23)CC1` was tested, and the Potency was inconclusive: 112 µM [activator, single point]. With `CCOC(=O)c1c(NC(=O)CSc2nc3ccccc3c(=O)n2-c2ccc(F)cc2)sc(C(C)=O)c1C` the activation was inconclusive: 31.6% [activator]. In the case of `c1ccc(Cn2nnnc2C(c2ccccc2)N2CCN(c3nc4ccccc4s3)CC2)cc1` (configuration not stated), the Potency was “inactive”. With `Cc1ccc(-n2c(-c3c(-c4ccccc4)noc3C)n[nH]c2=S)cc1` the Potency was inconclusive: 35.5 µM [activator, single point]. In the case of `C=CCc1cccc2cc(-c3nc4ccc(C(=O)O)cc4[nH]3)c(=O)oc12`, the Potency was “inactive”. With `COc1ccc(C)cc1NC(=O)C1CCCN(S(=O)(=O)c2cccc3cccnc23)C1` (configuration not stated) the Potency was “inactive”. With `CCC(=O)c1ccc(OCC(=O)OCC(=O)Nc2c(C)n(C)n(-c3ccccc3)c2=O)cc1` the activation was inconclusive: 34.4% [activator]. In the case of `O=C(COc1ccccc1F)NC1CCN(Cc2ccccc2)CC1`, the Potency was “inactive”. With `Cc1cccc(NC(=O)CC(C)(C)C)c1` the Potency was inconclusive: 35.5 µM [activator, single point]. For `COc1ccc(N2CCN(C(=S)Nc3cc(C)ccc3C)CC2)cc1`, the Potency was inconclusive: 5.01 µM [activator, single point]. In the case of `Cc1nc(CN2CCCCC2)c(O)c(=O)[nH]1`, the Potency was inconclusive: 50.1 µM [activator, partial curve, poor fit]. `CC(C)CNS(=O)(=O)c1ccc(OCC(=O)Nc2ccc3c(c2)OCO3)c(Cl)c1` was tested, and the Potency was inconclusive: 14.1 µM [activator, partial curve]. With `O=C(CSc1n[nH]c(-c2cccs2)n1)N1CCCC1` the Potency was inconclusive: 8.91 µM [activator, full curve, poor fit]. `COc1ccc(CNC(=O)CCc2c(C)nc3c4cccnc4nn3c2C)cc1` was tested, and the Potency was inconclusive: 126 µM [activator, single point]. For `Cc1ccc(Cn2ncc3c(N4CCN(c5ccccc5C)CC4)ncnc32)cc1`, the Potency was “inactive”. In the case of `COc1cccc(NC(=O)COC(=O)c2ccc(S(=O)(=O)NCc3ccco3)cc2)c1`, the Potency was inconclusive: 44.7 µM [activator, single point]. In the case of `COC(C(=O)Nc1ccnn1C1CCN(Cc2ccc(C)o2)CC1)c1ccccc1` (configuration not stated), the Potency was inconclusive: 0.767 µM [activator, full curve]. In the case of `CCn1c(=O)c2sccc2n2c(CCCC(=O)Nc3ccc(Oc4ccccc4)cc3)nnc12`, the Potency was “inactive”. With `Cc1ccc(OCCSc2nc3ccccc3n2CCC(=O)O)cc1` the Potency was inconclusive: 1.41 µM [activator, full curve]. For `CC(=O)c1ccc(NC(=O)CN2CCCC2)cc1`, the Potency was inconclusive: 6.31 µM [activator, full curve, poor fit]. With `O=C(Nc1nc2ccccc2[nH]1)C1CCCC1` the Potency was “inactive”. `Clc1cccc(Cl)c1CSc1cc2c(nn1)-c1ccccc1CC2` was tested, and the Potency was “inactive”. With `COc1ccc(OC)c(CCNc2nc3cc(OC)c(OC)cc3c3nc(-c4cccnc4)nn23)c1` the activation was inconclusive: 35.9% [activator]. With `COc1ccc(-c2sc(C(=O)c3ccc(Cl)cc3Cl)cc2CC(=O)O)cc1` the Potency was “inactive”. With `Cc1ccc(-c2cc(C(=O)NC3CCCCC3)no2)cc1` the Potency was “inactive”. For `CCC(Cc1ccccc1)NC(=O)C1CCCCC1` (configuration not stated), the Potency was inconclusive: 25.1 µM [activator, partial curve]. For `CC(OC(=O)c1ccc(Cl)c(S(=O)(=O)Nc2ccc(F)cc2)c1)C(=O)NC(N)=O` (configuration not stated), the Potency was “inactive”. With `CC(C)NC(=O)N(C)C[C@H]1OCCCC[C@@H](C)Oc2ccc(N(C)C)cc2C(=O)N([C@H](C)CO)C[C@@H]1C` the activation was inconclusive: 41.6% [activator]. `Cc1ccc(-c2noc(-c3ccccc3OCC(=O)Nc3ccccc3[N+](=O)[O-])n2)cc1` was tested, and the Potency was “inactive”. In the case of `CC1(C)CC(=O)c2cc(OCC(=O)N3CCN(c4ccccc4F)CC3)ccc2O1`, the Potency was inconclusive: 3.98 µM [activator, partial curve, poor fit]. In the case of `Cc1cc(-c2nnco2)c(C)n1-c1ccc(F)cc1`, the Potency was active: 7.08 µM. For `COc1ccc(Br)cc1/C=N/Nc1ccccn1`, the Potency was “inactive”. For `CCCN1CCN(CCCNC(=O)c2cc3c(s2)-c2c(C)cccc2OC3)CC1`, the Potency was “inactive”. With `COc1nc(N/N=C/c2ccccc2F)nc(N2CCCCC2)n1` the activation was inconclusive: 30.7% [activator] [at 57.5 µM]. With `COc1ccc(NC(=O)CNC(=O)C2CCCCC2)cc1OC` the Potency was inconclusive: 126 µM [activator, single point]. For `CC(C)N(C)C1CCN(C(=O)Nc2ccc(Cl)cc2)CC1`, the Potency was inconclusive: 0.224 µM [activator, full curve, poor fit]. In the case of `COc1ccc(C)cc1NC(=O)CSc1ncc2c(n1)-c1ccc(Cl)cc1N(Cc1ccccc1)S2(=O)=O`, the activation was inconclusive: -24.4% [activator]. In the case of `COC(=O)[C@H](Cc1ccccc1)NC(=O)N1CCC(C)CC1`, the Potency was inconclusive: 4.47 µM [activator, partial curve, poor fit]. For `CCn1nc(C(=O)NNC(=O)c2ccccc2)c2ccccc2c1=O`, the activation was inconclusive: 54.9% [activator]. With `CCCNC(=O)c1nnsc1S(=O)(=O)c1ccc(Cl)cc1` the Potency was “inactive”. In the case of `O=C(O)c1cc(O)c2c(c1)C(=O)c1cc(O)cc(O)c1C2=O`, the Potency was “inactive”. In the case of `O=C(O)c1cc(NS(=O)(=O)c2ccc(NC3CCCCC3)c([N+](=O)[O-])c2)cc(C(=O)O)c1`, the Potency was inconclusive: 25.1 µM [activator, full curve]. In the case of `CCOCCCNC(=O)Cn1ncc2c([nH]c3ccc(C)cc32)c1=O`, the activation was inconclusive: 32.2% [activator]. For `Cc1ccc(C)c(N2CCN(C3(c4ccccc4)C(=O)c4ccccc4C3=O)CC2)c1`, the Potency was inconclusive: 89.1 µM [activator, partial curve, poor fit]. In the case of `O=C(O)CCN1C(=O)C2C3C=CC(C3)C2C1=O` (configuration not stated), the Potency was inconclusive: 15.8 µM [activator, single point]. With `Cc1cc(C(C)(C)C)oc1C(=O)N(CC(=O)NC1CCCC1)Cc1ccccc1Cl` the Potency was “inactive”. With `O=C(Nc1ccccc1)c1ccccc1NC(=O)c1ccccc1C(=O)O` the Potency was inconclusive: 11.2 µM [activator, full curve]. `Cc1cc(C)n(CC(=O)c2cccc([N+](=O)[O-])c2)n1` was tested, and the activation was inconclusive: -12.2% [activator]. With `COc1ccc(OCC(O)CNCCNc2nccc(C(F)(F)F)n2)cc1` (configuration not stated) the Potency was inconclusive: 126 µM [activator, single point]. In the case of `Cc1ccc2c(n1)sc1c(-c3ccc(Br)cc3)c(C#N)c(N)nc12`, the Potency was inconclusive: 8.91 µM [activator, partial curve, poor fit]. In the case of `CCc1cc2c(=O)oc(-c3ccccc3F)nc2s1`, the activation was inconclusive: 58.9% [activator].

Reference: PubChem BioAssay AID743266 (National Center for Advancing Translational Sciences (NCATS), 2014)
Note: nearly all actives have a fitted effect of over 55% in size.
Potency is the fitted concentration of half-maximal effect.
